Laboratory results taken from PMC11416365, “Exploring the manganese-dependent interaction between a transcription factor and its corresponding DNA: insights from gas-phase electrophoresis on a nES GEMMA instrument” (Analytical and Bioanalytical Chemistry, 2024).
The exact form of at least one protein or probe is not confirmed. For some of these results: No signal at the amounts used counts as a negative. Where a protein sequence is shown, tags need not be part of it. For some of these results: Weaker means in comparison with the reference protein, sequence or condition of that experiment.

How the values were obtained:
[1] = target: T1, BMntR (Bacillus subtilis) (UniProt P54512); experiment: nES GEMMA (gas-phase electrophoresis); details: 0.25 uM DNA, nES GEMMA: DNA diluted in 40 mM ammonium acetate pH 8.4, recombinant protein
T1 sequence (looked up, limits assumed): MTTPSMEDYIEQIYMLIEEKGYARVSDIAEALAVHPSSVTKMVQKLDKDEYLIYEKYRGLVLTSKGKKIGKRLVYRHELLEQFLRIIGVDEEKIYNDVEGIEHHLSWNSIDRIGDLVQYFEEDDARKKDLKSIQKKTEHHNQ

[2] = target: T1, BMntR (Bacillus subtilis); experiment: EMSA; details: 90 uM protein, 2.5 uM DNA, EMSA: 10 mM Tris-HCl pH 7.6, 50 mM NaCl, 1 mM DTT, 10% glycerol, 50 ug/mL BSA, 15 min room temperature, gel in TB pH 7.6 at 4 C, recombinant protein

AAAATAATTTGCCTTAAGGAAACTCTTT (double strand) [B. subtilis mntH recognition sequence]
binding result ([1]; 250 uM MnCl2, 1.3 uM BMntR, complex peak 7.0 nm): binds
binding result ([1]; no Mn2+, 1.3 uM BMntR): no binding
binding result ([2]; 4 mM Mn2+ (16 mM with 8 mM EDTA)): binds
binding result ([2]; no Mn2+, slight interaction): binds more weakly
